# Data taken from paper PMC8384837.
# Residue numbers refer to the chain shown, from its start. The list shows a part of the results. For some assays here: At the low end of the ranking the order means little. For some assays here: The exact form of the protein is not confirmed.
# What was measured:
# Conditions in all cases: yeast three-hybrid, YBZ-1, SC-Leu-His + 0.5 mM 3-AT, 4 days
# [1] = molecular target: T1, PUM1 PUF domain R4-VNG N971V + H972N + Q975G (UniProt Q14671)
# T1 sequence: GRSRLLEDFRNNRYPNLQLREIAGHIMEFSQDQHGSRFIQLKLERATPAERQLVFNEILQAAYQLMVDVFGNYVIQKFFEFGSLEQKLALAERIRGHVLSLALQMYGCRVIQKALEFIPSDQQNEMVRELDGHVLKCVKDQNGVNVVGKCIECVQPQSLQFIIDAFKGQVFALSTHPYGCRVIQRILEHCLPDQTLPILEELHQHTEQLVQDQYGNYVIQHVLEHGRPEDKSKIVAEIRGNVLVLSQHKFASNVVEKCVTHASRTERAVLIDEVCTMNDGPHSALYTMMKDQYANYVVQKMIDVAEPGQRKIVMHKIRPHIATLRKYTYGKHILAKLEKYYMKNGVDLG
# [2] = molecular target: T2, PUM1 PUF domain R4-VNS N971V + H972N + Q975S (UniProt Q14671)
# T2 sequence: T1 sequence with G148S
# [3] = molecular target: T3, PUM1 PUF domain R4-VNT N971V + H972N + Q975T (UniProt Q14671)
# T3 sequence: T1 sequence with G148T
# [4] = molecular target: T4, PUM1 PUF domain R4-VNV N971V + H972N + Q975V (UniProt Q14671)
# T4 sequence: T1 sequence with G148V
# [5] = molecular target: T5, PUM1 PUF domain R4-VPA N971V + H972P + Q975A (UniProt Q14671)
# T5 sequence: T1 sequence with N145P, G148A
# [6] = molecular target: T6, PUM1 PUF domain R4-VPC N971V + H972P + Q975C (UniProt Q14671)
# T6 sequence: T1 sequence with N145P, G148C
# [7] = molecular target: T7, PUM1 PUF domain R4-VPG N971V + H972P + Q975G (UniProt Q14671)
# T7 sequence: T1 sequence with N145P
# [8] = molecular target: T8, PUM1 PUF domain R4-VPS N971V + H972P + Q975S (UniProt Q14671)
# T8 sequence: T1 sequence with N145P, G148S
# [9] = molecular target: T9, PUM1 PUF domain R4-VPT N971V + H972P + Q975T (UniProt Q14671)
# T9 sequence: T1 sequence with N145P, G148T
# [10] = molecular target: T10, PUM1 PUF domain R4-VRG N971V + H972R + Q975G (Homo sapiens) (UniProt Q14671)
# T10 sequence: T1 sequence with N145R
# [11] = molecular target: T11, PUM1 PUF domain R4-VRT N971V + H972R + Q975T (UniProt Q14671)
# T11 sequence: T1 sequence with N145R, G148T
# [12] = molecular target: T12, PUM1 PUF domain R4-VSI N971V + H972S + Q975I (UniProt Q14671)
# T12 sequence: T1 sequence with N145S, G148I
# [13] = molecular target: T13, PUM1 PUF domain R4-VSL N971V + H972S + Q975L (UniProt Q14671)
# T13 sequence: T1 sequence with N145S, G148L
# [14] = molecular target: T14, PUM1 PUF domain R4-WAA N971W + H972A + Q975A (UniProt Q14671)
# T14 sequence: T1 sequence with V144W, N145A, G148A
# [15] = molecular target: T15, PUM1 PUF domain R4-WAC N971W + H972A + Q975C (UniProt Q14671)
# T15 sequence: T1 sequence with V144W, N145A, G148C
# [16] = molecular target: T16, PUM1 PUF domain R4-WAG N971W + H972A + Q975G (UniProt Q14671)
# T16 sequence: T1 sequence with V144W, N145A
# [17] = molecular target: T17, PUM1 PUF domain R4-WAR N971W + H972A + Q975R (UniProt Q14671)
# T17 sequence: T1 sequence with V144W, N145A, G148R
# [18] = molecular target: T18, PUM1 PUF domain R4-WAS N971W + H972A + Q975S (UniProt Q14671)
# T18 sequence: T1 sequence with V144W, N145A, G148S
# [19] = molecular target: T19, PUM1 PUF domain R4-WAV N971W + H972A + Q975V (UniProt Q14671)
# T19 sequence: T1 sequence with V144W, N145A, G148V
# [20] = molecular target: T20, PUM1 PUF domain R4-WAW N971W + H972A + Q975W (UniProt Q14671)
# T20 sequence: T1 sequence with V144W, N145A, G148W
# [21] = molecular target: T21, PUM1 PUF domain R4-WFG N971W + H972F + Q975G (UniProt Q14671)
# T21 sequence: T1 sequence with V144W, N145F
# [22] = molecular target: T22, PUM1 PUF domain R4-WGA N971W + H972G + Q975A (UniProt Q14671)
# T22 sequence: T1 sequence with V144W, N145G, G148A
# [23] = molecular target: T23, PUM1 PUF domain R4-WGC N971W + H972G + Q975C (UniProt Q14671)
# T23 sequence: T1 sequence with V144W, N145G, G148C
# [24] = molecular target: T24, PUM1 PUF domain R4-WGD N971W + H972G + Q975D (UniProt Q14671)
# T24 sequence: T1 sequence with V144W, N145G, G148D
# [25] = molecular target: T25, PUM1 PUF domain R4-WGM N971W + H972G + Q975M (UniProt Q14671)
# T25 sequence: T1 sequence with V144W, N145G, G148M
# [26] = molecular target: T26, PUM1 PUF domain R4-WGR N971W + H972G + Q975R (Homo sapiens) (UniProt Q14671)
# T26 sequence: T1 sequence with V144W, N145G, G148R
# [27] = molecular target: T27, PUM1 PUF domain R4-WGS N971W + H972G + Q975S (Homo sapiens) (UniProt Q14671)
# T27 sequence: T1 sequence with V144W, N145G, G148S
# [28] = molecular target: T28, PUM1 PUF domain R4-WGT N971W + H972G + Q975T (Homo sapiens) (UniProt Q14671)
# T28 sequence: T1 sequence with V144W, N145G, G148T
# [29] = molecular target: T29, PUM1 PUF domain R4-WGV N971W + H972G + Q975V (UniProt Q14671)
# T29 sequence: T1 sequence with V144W, N145G, G148V
# [30] = molecular target: T30, PUM1 PUF domain R4-WGW N971W + H972G + Q975W (UniProt Q14671)
# T30 sequence: T1 sequence with V144W, N145G, G148W
# [31] = molecular target: T31, PUM1 PUF domain R4-WSA N971W + H972S + Q975A (UniProt Q14671)
# T31 sequence: T1 sequence with V144W, N145S, G148A
# [32] = molecular target: T32, PUM1 PUF domain R4-WSC N971W + H972S + Q975C (UniProt Q14671)
# T32 sequence: T1 sequence with V144W, N145S, G148C
# [33] = molecular target: T33, PUM1 PUF domain R4-WSG N971W + H972S + Q975G (UniProt Q14671)
# T33 sequence: T1 sequence with V144W, N145S
# [34] = molecular target: T34, PUM1 PUF domain R4-WSH N971W + H972S + Q975H (Homo sapiens) (UniProt Q14671)
# T34 sequence: T1 sequence with V144W, N145S, G148H
# [35] = molecular target: T35, PUM1 PUF domain R4-WSR N971W + H972S + Q975R (UniProt Q14671)
# T35 sequence: T1 sequence with V144W, N145S, G148R
# [36] = molecular target: T36, PUM1 PUF domain R4-WSS N971W + H972S + Q975S (UniProt Q14671)
# T36 sequence: T1 sequence with V144W, N145S, G148S
# [37] = molecular target: T37, PUM1 PUF domain R4-WST N971W + H972S + Q975T (UniProt Q14671)
# T37 sequence: T1 sequence with V144W, N145S, G148T
# [38] = molecular target: T38, PUM1 PUF domain R4-WSW N971W + H972S + Q975W (UniProt Q14671)
# T38 sequence: T1 sequence with V144W, N145S, G148W
# [39] = molecular target: T39, PUM1 PUF domain R4-WSY N971W + H972S + Q975Y (UniProt Q14671)
# T39 sequence: T1 sequence with V144W, N145S, G148Y
# [40] = molecular target: T40, PUM1 PUF domain R5-PHQ R6-SWD C1007P + R1008H + N1043S + Y1044W + Q1047D (UniProt Q14671)
# T40 sequence: T1 sequence with V144N, N145H, G148Q, C180P, R181H, N216S, Y217W, Q220D
# [41] = molecular target: T41, PUM1 PUF domain R6-SWD R7-NPG N1043S + Y1044W + Q1047D + S1079N + N1080P + E1083G (Homo sapiens) (UniProt Q14671)
# T41 sequence: T1 sequence with V144N, N145H, G148Q, N216S, Y217W, Q220D, S252N, N253P, E256G
sequence,measurement,setting,value
GGCUAGAACUAGUGGAUCCCCCGGCGCCCGGCGGCUCGAGCCCGGGUAAGUGUAGAUAGUCUGCAUGCCGCCGGGCGCCAUGCCUGCAGGUCGACUCUAGAAAACAUG,binding signal (log2 enrichment (interaction score)),[1],< -6.51
same,binding signal (log2 enrichment (interaction score)),[2],< -5.92
same,binding signal (log2 enrichment (interaction score)),[3],< -5.67
same,binding signal (log2 enrichment (interaction score)),[4],< -6.96
same,binding signal (log2 enrichment (interaction score)),[5],< -8.41
same,binding signal (log2 enrichment (interaction score)),[6],< -7.41
same,binding signal (log2 enrichment (interaction score)),[7],< -9.45
same,binding signal (log2 enrichment (interaction score)),[8],< -7.96
same,binding signal (log2 enrichment (interaction score)),[9],< -6.69
same,binding signal (log2 enrichment (interaction score)),[10],-3.93
same,binding signal (log2 enrichment (interaction score)),[11],< -5.44
same,binding signal (log2 enrichment (interaction score)),[12],< -5.94
same,binding signal (log2 enrichment (interaction score)),[13],< -8.33
same,binding signal (log2 enrichment (interaction score)),[14],< -6.12
same,binding signal (log2 enrichment (interaction score)),[15],< -6.19
same,binding signal (log2 enrichment (interaction score)),[16],< -6.24
same,binding signal (log2 enrichment (interaction score)),[17],< -7.09
same,binding signal (log2 enrichment (interaction score)),[18],< -6.34
same,binding signal (log2 enrichment (interaction score)),[19],< -7.95
same,binding signal (log2 enrichment (interaction score)),[20],< -7.08
same,binding signal (log2 enrichment (interaction score)),[21],< -5.92
same,binding signal (log2 enrichment (interaction score)),[22],< -5.39
same,binding signal (log2 enrichment (interaction score)),[23],< -6.79
same,binding signal (log2 enrichment (interaction score)),[24],< -5.24
same,binding signal (log2 enrichment (interaction score)),[25],< -5.67
same,binding signal (log2 enrichment (interaction score)),[26],-0.56
same,binding signal (log2 enrichment (interaction score)),[27],-1.78
same,binding signal (log2 enrichment (interaction score)),[28],-1.54
same,binding signal (log2 enrichment (interaction score)),[29],-6.5
same,binding signal (log2 enrichment (interaction score)),[30],< -6.54
same,binding signal (log2 enrichment (interaction score)),[31],< -6.64
same,binding signal (log2 enrichment (interaction score)),[32],< -5.98
same,binding signal (log2 enrichment (interaction score)),[33],< -8.28
same,binding signal (log2 enrichment (interaction score)),[34],-1.65
same,binding signal (log2 enrichment (interaction score)),[35],< -6.75
same,binding signal (log2 enrichment (interaction score)),[36],< -7.14
same,binding signal (log2 enrichment (interaction score)),[37],< -7.04
same,binding signal (log2 enrichment (interaction score)),[38],< -7.31
same,binding signal (log2 enrichment (interaction score)),[39],< -5.92
same,binding signal (log2 enrichment (interaction score)),[40],< -6.6
same,binding signal (log2 enrichment (interaction score)),[41],-0.29

# Looked up one by one from the entries so far, 3 records:
sequence,measurement,setting,value
GGCUAGAACUAGUGGAUCCCCCGGCGCCCGGCGGCUCGAGCCCGGGUAAGUGUAGAUAGUCUGCAUGCCGCCGGGCGCCAUGCCUGCAGGUCGACUCUAGAAAACAUG,binding signal (log2 enrichment (interaction score)),[33],< -8.28
same,binding signal (log2 enrichment (interaction score)),[30],< -6.54
same,binding signal (log2 enrichment (interaction score)),[5],< -8.41
